Laboratory results taken from the supplement of paper PMC10849652.
This is one part of the list.

Sequences of proteins named here, by UniProt entry; tags and fusion partners are left off. A change or cut given only in a name is not applied to a line headed by its entry.
UniProt Q01081: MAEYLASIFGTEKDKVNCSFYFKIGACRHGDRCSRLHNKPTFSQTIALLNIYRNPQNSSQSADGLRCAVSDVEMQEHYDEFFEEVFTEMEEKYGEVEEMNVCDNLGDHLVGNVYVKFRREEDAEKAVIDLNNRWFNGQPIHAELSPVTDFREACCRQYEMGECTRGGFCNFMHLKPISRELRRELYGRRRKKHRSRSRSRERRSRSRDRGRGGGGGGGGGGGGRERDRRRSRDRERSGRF
UniProt Q3B726, whole entry, looked up: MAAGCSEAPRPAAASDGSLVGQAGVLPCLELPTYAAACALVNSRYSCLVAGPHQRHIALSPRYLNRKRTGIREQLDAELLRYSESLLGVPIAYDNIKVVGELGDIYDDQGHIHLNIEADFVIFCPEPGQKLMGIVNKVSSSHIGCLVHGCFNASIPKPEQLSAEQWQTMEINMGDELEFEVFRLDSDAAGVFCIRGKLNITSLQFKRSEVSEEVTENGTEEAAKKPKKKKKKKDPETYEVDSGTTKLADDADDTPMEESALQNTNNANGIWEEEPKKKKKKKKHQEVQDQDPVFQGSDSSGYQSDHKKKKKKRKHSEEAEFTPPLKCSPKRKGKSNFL
UniProt O75896: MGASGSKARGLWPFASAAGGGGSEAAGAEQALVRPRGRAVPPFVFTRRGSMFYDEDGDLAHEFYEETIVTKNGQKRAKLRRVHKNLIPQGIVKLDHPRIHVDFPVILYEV
UniProt Q9H6E5: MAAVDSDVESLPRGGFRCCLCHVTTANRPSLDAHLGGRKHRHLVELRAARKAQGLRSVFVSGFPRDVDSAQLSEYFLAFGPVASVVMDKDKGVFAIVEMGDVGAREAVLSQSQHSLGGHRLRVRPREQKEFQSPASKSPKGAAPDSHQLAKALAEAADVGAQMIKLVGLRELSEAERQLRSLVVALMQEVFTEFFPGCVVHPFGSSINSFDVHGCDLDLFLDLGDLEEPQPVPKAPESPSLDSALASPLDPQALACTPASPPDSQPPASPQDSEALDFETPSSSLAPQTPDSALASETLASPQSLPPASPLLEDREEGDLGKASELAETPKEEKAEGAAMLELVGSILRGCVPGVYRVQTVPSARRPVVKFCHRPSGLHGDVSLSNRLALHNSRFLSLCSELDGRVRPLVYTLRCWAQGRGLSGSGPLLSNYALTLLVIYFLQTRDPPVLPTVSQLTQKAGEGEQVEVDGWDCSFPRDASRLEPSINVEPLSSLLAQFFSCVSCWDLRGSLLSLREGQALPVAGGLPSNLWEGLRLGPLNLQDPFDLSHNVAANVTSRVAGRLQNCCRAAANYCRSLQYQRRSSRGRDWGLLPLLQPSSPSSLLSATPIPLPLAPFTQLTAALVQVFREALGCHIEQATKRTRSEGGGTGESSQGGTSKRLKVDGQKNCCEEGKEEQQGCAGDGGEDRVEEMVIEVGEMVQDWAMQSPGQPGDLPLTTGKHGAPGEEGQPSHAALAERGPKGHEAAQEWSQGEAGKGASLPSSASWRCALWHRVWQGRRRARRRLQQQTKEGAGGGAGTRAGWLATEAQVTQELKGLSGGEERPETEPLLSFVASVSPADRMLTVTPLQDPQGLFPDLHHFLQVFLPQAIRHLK
UniProt Q969T4: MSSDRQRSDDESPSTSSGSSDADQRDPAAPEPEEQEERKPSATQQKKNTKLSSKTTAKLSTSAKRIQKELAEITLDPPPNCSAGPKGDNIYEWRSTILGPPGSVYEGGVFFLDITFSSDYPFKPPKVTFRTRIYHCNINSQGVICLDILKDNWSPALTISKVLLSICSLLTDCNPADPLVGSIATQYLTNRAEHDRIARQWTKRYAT
UniProt Q2NL82: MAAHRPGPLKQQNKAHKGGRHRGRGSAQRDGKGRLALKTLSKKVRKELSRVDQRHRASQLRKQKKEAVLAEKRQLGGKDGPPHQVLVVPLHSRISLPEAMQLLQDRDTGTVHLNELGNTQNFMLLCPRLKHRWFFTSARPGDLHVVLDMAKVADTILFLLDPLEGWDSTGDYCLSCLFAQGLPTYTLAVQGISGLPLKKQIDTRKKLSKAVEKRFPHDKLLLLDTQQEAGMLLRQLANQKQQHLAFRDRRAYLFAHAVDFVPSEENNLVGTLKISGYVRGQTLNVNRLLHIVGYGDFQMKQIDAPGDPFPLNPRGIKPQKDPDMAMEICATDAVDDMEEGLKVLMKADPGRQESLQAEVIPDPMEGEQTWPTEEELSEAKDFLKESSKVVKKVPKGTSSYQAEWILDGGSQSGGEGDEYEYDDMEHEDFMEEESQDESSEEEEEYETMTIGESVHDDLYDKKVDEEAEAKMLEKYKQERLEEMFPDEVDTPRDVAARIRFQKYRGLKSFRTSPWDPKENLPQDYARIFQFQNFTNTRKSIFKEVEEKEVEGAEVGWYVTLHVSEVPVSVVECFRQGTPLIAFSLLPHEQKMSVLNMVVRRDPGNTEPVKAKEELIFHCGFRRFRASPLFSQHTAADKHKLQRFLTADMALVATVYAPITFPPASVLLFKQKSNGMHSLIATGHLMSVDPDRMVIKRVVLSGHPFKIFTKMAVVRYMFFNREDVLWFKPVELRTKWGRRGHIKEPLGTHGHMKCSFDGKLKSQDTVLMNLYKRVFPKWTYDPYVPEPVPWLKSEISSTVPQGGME
UniProt Q9BTX7: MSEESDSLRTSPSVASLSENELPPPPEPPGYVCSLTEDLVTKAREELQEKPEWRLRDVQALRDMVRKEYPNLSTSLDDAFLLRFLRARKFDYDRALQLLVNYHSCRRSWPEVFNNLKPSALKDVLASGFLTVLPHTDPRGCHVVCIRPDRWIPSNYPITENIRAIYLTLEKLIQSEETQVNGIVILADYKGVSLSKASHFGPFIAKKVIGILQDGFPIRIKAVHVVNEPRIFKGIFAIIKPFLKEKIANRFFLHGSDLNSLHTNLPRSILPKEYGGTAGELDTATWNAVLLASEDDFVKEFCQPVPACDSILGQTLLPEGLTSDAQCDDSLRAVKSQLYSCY
UniProt O60637: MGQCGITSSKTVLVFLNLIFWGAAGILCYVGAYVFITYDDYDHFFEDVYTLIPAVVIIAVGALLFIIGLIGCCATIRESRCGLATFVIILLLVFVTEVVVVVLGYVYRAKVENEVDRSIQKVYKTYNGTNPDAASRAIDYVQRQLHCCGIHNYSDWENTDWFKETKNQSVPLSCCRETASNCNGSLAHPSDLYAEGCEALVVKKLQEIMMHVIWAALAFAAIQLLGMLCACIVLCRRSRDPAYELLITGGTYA
UniProt P04350, whole entry, looked up: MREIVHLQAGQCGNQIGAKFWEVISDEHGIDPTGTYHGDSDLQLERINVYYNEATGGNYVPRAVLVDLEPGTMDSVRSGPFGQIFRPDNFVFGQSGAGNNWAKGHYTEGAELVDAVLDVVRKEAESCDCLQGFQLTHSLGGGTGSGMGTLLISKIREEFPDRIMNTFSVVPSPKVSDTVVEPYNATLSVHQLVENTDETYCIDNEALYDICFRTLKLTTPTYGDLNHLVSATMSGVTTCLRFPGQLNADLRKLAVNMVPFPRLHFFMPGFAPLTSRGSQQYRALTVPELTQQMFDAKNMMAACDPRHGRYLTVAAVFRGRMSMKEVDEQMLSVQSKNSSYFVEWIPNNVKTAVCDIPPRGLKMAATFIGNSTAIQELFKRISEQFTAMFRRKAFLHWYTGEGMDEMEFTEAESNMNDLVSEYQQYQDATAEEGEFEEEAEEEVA
UniProt Q7Z7E8: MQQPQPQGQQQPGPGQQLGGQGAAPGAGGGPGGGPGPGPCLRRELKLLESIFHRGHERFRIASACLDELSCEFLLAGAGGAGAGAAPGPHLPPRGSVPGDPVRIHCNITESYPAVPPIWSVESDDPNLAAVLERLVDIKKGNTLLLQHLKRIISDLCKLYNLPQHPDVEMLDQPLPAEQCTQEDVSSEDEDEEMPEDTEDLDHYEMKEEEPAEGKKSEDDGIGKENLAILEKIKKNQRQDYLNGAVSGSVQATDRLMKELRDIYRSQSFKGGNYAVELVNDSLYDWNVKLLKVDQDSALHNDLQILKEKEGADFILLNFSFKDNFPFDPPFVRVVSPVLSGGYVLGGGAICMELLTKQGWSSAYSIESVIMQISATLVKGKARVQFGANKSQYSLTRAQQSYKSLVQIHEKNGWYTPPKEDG
UniProt Q96CW5, whole entry, looked up: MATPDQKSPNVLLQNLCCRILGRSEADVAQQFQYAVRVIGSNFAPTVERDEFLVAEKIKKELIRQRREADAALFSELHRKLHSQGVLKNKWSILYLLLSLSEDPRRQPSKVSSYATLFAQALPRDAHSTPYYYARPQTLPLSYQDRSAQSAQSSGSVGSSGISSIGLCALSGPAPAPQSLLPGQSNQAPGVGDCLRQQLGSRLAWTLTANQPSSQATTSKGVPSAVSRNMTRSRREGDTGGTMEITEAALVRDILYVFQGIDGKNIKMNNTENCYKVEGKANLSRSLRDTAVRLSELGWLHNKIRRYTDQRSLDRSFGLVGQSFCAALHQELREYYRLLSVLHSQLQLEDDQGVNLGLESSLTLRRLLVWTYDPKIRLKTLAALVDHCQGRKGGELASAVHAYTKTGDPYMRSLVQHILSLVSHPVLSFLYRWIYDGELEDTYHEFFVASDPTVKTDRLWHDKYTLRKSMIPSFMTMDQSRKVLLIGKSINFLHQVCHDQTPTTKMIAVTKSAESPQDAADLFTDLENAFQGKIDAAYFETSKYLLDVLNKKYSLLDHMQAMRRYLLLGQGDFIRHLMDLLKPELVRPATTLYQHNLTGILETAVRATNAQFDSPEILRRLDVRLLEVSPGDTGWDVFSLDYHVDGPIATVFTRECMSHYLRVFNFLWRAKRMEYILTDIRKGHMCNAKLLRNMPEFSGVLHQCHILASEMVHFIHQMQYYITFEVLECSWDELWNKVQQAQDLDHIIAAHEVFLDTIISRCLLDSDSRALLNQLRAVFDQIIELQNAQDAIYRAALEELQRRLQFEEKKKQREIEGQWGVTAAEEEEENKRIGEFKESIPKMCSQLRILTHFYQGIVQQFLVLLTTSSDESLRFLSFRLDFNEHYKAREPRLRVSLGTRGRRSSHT
UniProt O95881: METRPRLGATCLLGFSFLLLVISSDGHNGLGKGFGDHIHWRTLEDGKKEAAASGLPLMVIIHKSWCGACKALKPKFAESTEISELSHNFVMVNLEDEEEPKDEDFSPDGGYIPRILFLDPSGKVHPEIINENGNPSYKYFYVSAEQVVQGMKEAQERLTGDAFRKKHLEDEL
UniProt Q9H3M7: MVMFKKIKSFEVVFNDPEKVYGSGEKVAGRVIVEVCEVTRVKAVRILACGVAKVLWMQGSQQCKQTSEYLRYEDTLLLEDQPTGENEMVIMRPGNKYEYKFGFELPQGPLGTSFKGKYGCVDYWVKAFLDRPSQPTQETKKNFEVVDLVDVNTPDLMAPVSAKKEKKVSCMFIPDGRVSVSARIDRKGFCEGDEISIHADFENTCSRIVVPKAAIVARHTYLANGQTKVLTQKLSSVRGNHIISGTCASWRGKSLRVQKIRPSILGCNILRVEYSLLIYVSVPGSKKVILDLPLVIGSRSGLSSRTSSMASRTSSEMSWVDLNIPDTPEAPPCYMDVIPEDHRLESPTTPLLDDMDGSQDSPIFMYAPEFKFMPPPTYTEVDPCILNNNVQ
UniProt Q9Y385: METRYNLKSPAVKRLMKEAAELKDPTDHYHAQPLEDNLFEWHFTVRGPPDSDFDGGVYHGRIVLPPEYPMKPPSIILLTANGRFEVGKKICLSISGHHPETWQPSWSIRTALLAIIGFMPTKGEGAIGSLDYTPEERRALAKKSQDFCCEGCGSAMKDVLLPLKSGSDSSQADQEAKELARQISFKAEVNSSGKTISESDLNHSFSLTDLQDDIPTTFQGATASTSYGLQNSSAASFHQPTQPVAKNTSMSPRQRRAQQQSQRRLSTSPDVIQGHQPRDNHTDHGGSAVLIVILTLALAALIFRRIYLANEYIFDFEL
UniProt P62253: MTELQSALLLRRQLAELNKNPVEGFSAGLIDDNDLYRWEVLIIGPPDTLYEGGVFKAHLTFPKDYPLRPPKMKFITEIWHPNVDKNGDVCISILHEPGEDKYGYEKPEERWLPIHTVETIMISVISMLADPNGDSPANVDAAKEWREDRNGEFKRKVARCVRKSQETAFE
UniProt P07437, whole entry, looked up: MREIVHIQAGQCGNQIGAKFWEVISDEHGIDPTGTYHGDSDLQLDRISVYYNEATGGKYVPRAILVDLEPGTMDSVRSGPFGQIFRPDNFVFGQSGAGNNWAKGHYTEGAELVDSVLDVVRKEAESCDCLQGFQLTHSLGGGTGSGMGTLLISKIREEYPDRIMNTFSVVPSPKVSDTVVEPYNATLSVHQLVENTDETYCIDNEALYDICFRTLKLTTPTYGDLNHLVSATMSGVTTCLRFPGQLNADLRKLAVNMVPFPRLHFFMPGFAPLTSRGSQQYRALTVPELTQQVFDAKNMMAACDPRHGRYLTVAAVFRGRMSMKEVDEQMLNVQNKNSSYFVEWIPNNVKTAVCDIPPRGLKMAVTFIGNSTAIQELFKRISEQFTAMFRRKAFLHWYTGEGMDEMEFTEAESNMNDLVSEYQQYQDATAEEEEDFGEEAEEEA
UniProt P83876: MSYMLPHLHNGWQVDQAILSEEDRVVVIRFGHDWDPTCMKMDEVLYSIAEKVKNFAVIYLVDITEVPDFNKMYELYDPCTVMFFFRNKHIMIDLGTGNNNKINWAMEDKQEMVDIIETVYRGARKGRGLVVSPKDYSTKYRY

Tests used:
Assay in all cases: log2 fold change, soluble protein after heating vs DMSO (PISA); higher = thermal stabilisation; K562 cells, 10 uM, 30 min; active = over 0.2 and 3.5 SD of the protein, either way, in both replicates (recomputed)
[1] = compound: C1=CC=C(C=C1)[C@H](COC2=CC3=C(C=C2)NC(=O)N3)NC(=O)C4=CC=CN(C4=O)CC5=CC(=C(C=C5)F)F
Outline: (§1)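 Aliquots of K562 cells (2×10^6 cells/mL) treated with 10 μM compound for 30 min were heated for 3 min over 48°C-58°C. After pooling and extraction in PBS with 0.5% NP-40 at 4°C, soluble protein from a 21,000xg, 90 min spin was quantified by TMTpro 16plex LC-MS/MS with channel sums equalised. Thermal stability is expressed against control samples, from duplicates, as a log2 fold change.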

[2] = compound: CC1=C(SC2=C1C(=N[C@H](C3=NN=C(N32)C)CC(=O)N)C4=CC=C(C=C4)Cl)C
Outline: as §1

[3] = compound: CC1=C2C(=CC=C1)N=C(N(C2=O)C3=CC=CC=C3C)CN4C=NC5=C(N=CN=C54)N
Outline: as §1

[4] = compound: Cc1sc2c(c1C)C(c1ccc(Cl)cc1)=N[C@@H](CC(=O)OC(C)(C)C)c1nnc(C)n1-2
Outline: as §1

[5] = compound: c1ccc([C@@H]2C[C@H]2NC2CCNCC2)cc1
Outline: as §1

Row | Target | log2 fold change [1] | log2 fold change [2] | log2 fold change [3] | log2 fold change [4] | log2 fold change [5]
1 | U2AF1 isoform 2 (UniProt Q01081) | inactive: 0.021 | inactive: 0.03 | inactive: 0.11 | inactive: -0.02 | inactive: 0.035
2 | TWSG1 (UniProt Q9GZX9) | inactive: -0.024 | inactive: -0.009 | inactive: 0.003 | inactive: 0.02 | inactive: -0.015
3 | UBC (UniProt P0CG48) | inactive: 0.023 | inactive: 0.087 | inactive: 0.058 | inactive: -0.019 | inactive: -0.061
4 | UBE2R2 (UniProt Q712K3) | inactive: 0.007 | inactive: 0.024 | inactive: 0.127 | inactive: -0.035 | inactive: 0.013
5 | UBE2J2 isoform 3 (UniProt Q8N2K1) | inactive: 0.003 | inactive: 0.078 | inactive: -0.106 | inactive: -0.014 | inactive: -0.144
6 | UBAP2L isoform 5 (UniProt Q14157) | inactive: 0.055 | inactive: 0.036 | inactive: 0 | inactive: -0.016 | inactive: 0.017
7 | TWISTNB (UniProt Q3B726) | inactive: -0.36 | inactive: 0.069 | inactive: 0.185 | inactive: 0.012 | inactive: -0.066
8 | TUBB8B (UniProt A6NNZ2) | inactive: -0.028 | inactive: 0.051 | inactive: 0.088 | inactive: -0.083 | inactive: -0.042
9 | TXNDC5 (UniProt Q8NBS9) | inactive: 0.008 | inactive: 0.017 | inactive: -0.008 | inactive: -0.037 | inactive: 0
10 | TUSC2 (UniProt O75896) | inactive: -0.067 | – | – | – | –
11 | TUT1 (UniProt Q9H6E5) | inactive: -0.064 | – | – | – | –
12 | UBAP2 (UniProt Q5T6F2) | inactive: 0.021 | inactive: 0.003 | inactive: -0.015 | inactive: 0.017 | inactive: 0.043
13 | TYK2 (UniProt P29597) | inactive: 0.159 | – | – | – | –
14 | UBE2N (UniProt P61088) | inactive: -0.065 | inactive: 0.064 | inactive: 0.116 | inactive: -0.115 | inactive: -0.025
15 | TWF2 (UniProt Q6IBS0) | inactive: -0.038 | inactive: 0.044 | inactive: 0.038 | inactive: 0.013 | inactive: -0.04
16 | TXNRD2 (UniProt Q9NNW7) | inactive: -0.074 | inactive: 0.011 | inactive: 0.021 | inactive: -0.053 | inactive: 0.034
17 | UBE2E3 (UniProt Q969T4) | inactive: -0.076 | inactive: 0.119 | inactive: 0.115 | inactive: -0.088 | inactive: -0.023
18 | TSR1 (UniProt Q2NL82) | inactive: 0.036 | inactive: -0.049 | inactive: -0.019 | inactive: 0.198 | inactive: -0.034
19 | TSFM (UniProt P43897) | inactive: -0.17 | inactive: 0.03 | inactive: 0.177 | inactive: -0.138 | inactive: 0.012

Row | Target | log2 fold change [1] | log2 fold change [2] | log2 fold change [3] | log2 fold change [4] | log2 fold change [5]
20 | UBE2Z (UniProt Q9H832) | inactive: -0.01 | inactive: 0.031 | inactive: 0.087 | inactive: 0.008 | inactive: 0.013
21 | TTPAL (UniProt Q9BTX7) | inactive: -0.048 | inactive: -0.07 | inactive: 0.044 | inactive: 0.004 | inactive: -0.001
22 | TSNAX (UniProt Q99598) | inactive: 0.024 | inactive: 0.008 | inactive: 0.006 | inactive: -0.008 | inactive: 0.021
23 | TSPO (UniProt P30536) | inactive: -0.004 | inactive: 0.062 | inactive: 0.057 | inactive: -0.085 | inactive: 0.04
24 | TUBA4A (UniProt C9JJQ8) | inactive: -0.081 | inactive: 0.036 | inactive: 0 | inactive: -0.011 | inactive: 0.229
25 | TSEN54 (UniProt Q7Z6J9) | inactive: 0.02 | inactive: 0.119 | inactive: -0.027 | inactive: -0.018 | inactive: -0.044
26 | TSPAN3 (UniProt O60637) | inactive: -0.022 | inactive: -0.391 | inactive: 0.026 | inactive: -0.087 | inactive: 0.018
27 | TUBB4A (UniProt P04350) | inactive: 0.043 | inactive: 0 | inactive: -0.09 | inactive: -0.224 | inactive: 0.043
28 | UBE2Q1 (UniProt Q7Z7E8) | inactive: -0.041 | inactive: 0.061 | inactive: 0.053 | inactive: -0.001 | inactive: 0.062
29 | TYRO3 (UniProt Q06418) | inactive: 0.168 | – | – | – | –
30 | TXLNA (UniProt P40222) | inactive: -0.017 | inactive: 0.021 | inactive: 0.035 | inactive: -0.021 | inactive: -0.057
31 | UBE2M (UniProt P61081) | inactive: -0.011 | inactive: 0.052 | inactive: 0.059 | inactive: -0.019 | inactive: -0.016
32 | TUBGCP3 (UniProt Q96CW5) | inactive: -0.081 | inactive: 0 | inactive: 0.091 | inactive: 0.12 | inactive: -0.047
33 | TXNDC12 (UniProt O95881) | inactive: 0.025 | inactive: -0.027 | inactive: -0.064 | inactive: 0.004 | inactive: 0.014
34 | TTC17 (UniProt Q96AE7) | inactive: 0.01 | inactive: 0 | inactive: -0.022 | inactive: 0.045 | inactive: 0.049
35 | TXNIP (UniProt Q9H3M7) | inactive: -0.011 | inactive: 0.148 | inactive: -0.012 | inactive: -0.039 | inactive: -0.099
36 | UBA2 (UniProt Q9UBT2) | inactive: -0.006 | inactive: 0.034 | inactive: 0.079 | inactive: -0.013 | inactive: -0.024
37 | TYW3 (UniProt Q6IPR3) | inactive: 0.067 | inactive: -0.083 | inactive: -0.091 | inactive: 0.042 | inactive: -0.022
38 | UBE2K (UniProt D6RDM7) | inactive: -0.308 | inactive: -0.035 | inactive: 0.001 | inactive: -0.144 | inactive: 0.103

Another view of some results above.
Row	Target	log2 fold change [1]	log2 fold change [2]	log2 fold change [3]	log2 fold change [4]	log2 fold change [5]
1	U2AF1 isoform 2 (UniProt Q01081)	inactive: 0.021	inactive: 0.03	inactive: 0.11	inactive: -0.02	inactive: 0.035
2	TWSG1 (UniProt Q9GZX9)	inactive: -0.024	inactive: -0.009	inactive: 0.003	inactive: 0.02	inactive: -0.015
3	UBC (UniProt P0CG48)	inactive: 0.023	inactive: 0.087	inactive: 0.058	inactive: -0.019	inactive: -0.061
4	UBE2R2 (UniProt Q712K3)	inactive: 0.007	inactive: 0.024	inactive: 0.127	inactive: -0.035	inactive: 0.013
7	TWISTNB (UniProt Q3B726)	inactive: -0.36	inactive: 0.069	inactive: 0.185	inactive: 0.012	inactive: -0.066
11	TUT1 (UniProt Q9H6E5)	inactive: -0.064	–	–	–	–
13	TYK2 (UniProt P29597)	inactive: 0.159	–	–	–	–
14	UBE2N (UniProt P61088)	inactive: -0.065	inactive: 0.064	inactive: 0.116	inactive: -0.115	inactive: -0.025
19	TSFM (UniProt P43897)	inactive: -0.17	inactive: 0.03	inactive: 0.177	inactive: -0.138	inactive: 0.012
20	UBE2Z (UniProt Q9H832)	inactive: -0.01	inactive: 0.031	inactive: 0.087	inactive: 0.008	inactive: 0.013
21	TTPAL (UniProt Q9BTX7)	inactive: -0.048	inactive: -0.07	inactive: 0.044	inactive: 0.004	inactive: -0.001
23	TSPO (UniProt P30536)	inactive: -0.004	inactive: 0.062	inactive: 0.057	inactive: -0.085	inactive: 0.04
26	TSPAN3 (UniProt O60637)	inactive: -0.022	inactive: -0.391	inactive: 0.026	inactive: -0.087	inactive: 0.018
28	UBE2Q1 (UniProt Q7Z7E8)	inactive: -0.041	inactive: 0.061	inactive: 0.053	inactive: -0.001	inactive: 0.062
29	TYRO3 (UniProt Q06418)	inactive: 0.168	–	–	–	–
36	UBA2 (UniProt Q9UBT2)	inactive: -0.006	inactive: 0.034	inactive: 0.079	inactive: -0.013	inactive: -0.024
38	UBE2K (UniProt D6RDM7)	inactive: -0.308	inactive: -0.035	inactive: 0.001	inactive: -0.144	inactive: 0.103

Remaining list, next part.

Row | Target | log2 fold change [1] | log2 fold change [2] | log2 fold change [3] | log2 fold change [4] | log2 fold change [5]
39 | UBA5 (UniProt Q9GZZ9) | inactive: -0.032 | inactive: 0.014 | inactive: 0.03 | inactive: -0.003 | inactive: 0.003
40 | UBE2J1 (UniProt Q9Y385) | inactive: -0.061 | inactive: -0.011 | inactive: 0.05 | inactive: -0.039 | inactive: -0.068
41 | TSPAN13 (UniProt O95857) | inactive: -0.195 | inactive: 0.023 | active: 0.639 | inactive: 0.076 | inactive: 0.018
42 | UBE2G1 (UniProt P62253) | inactive: -0.016 | inactive: 0.051 | inactive: 0.045 | inactive: -0.023 | inactive: -0.039
43 | TTC1 (UniProt Q99614) | inactive: 0.007 | inactive: -0.016 | inactive: -0.012 | inactive: -0.008 | inactive: 0.013
44 | TUBB (UniProt P07437) | inactive: 0.033 | inactive: 0.062 | inactive: 0.039 | inactive: -0.031 | inactive: -0.078
45 | TXNL4A (UniProt P83876) | inactive: -0.028 | inactive: 0.019 | inactive: 0.025 | inactive: -0.002 | inactive: 0.051
46 | UBE2I (UniProt P63279) | inactive: -0.006 | inactive: 0.088 | inactive: 0.08 | inactive: -0.028 | inactive: -0.061
47 | TTLL12 (UniProt Q14166) | inactive: 0.164 | inactive: -0.029 | inactive: -0.147 | inactive: 0.198 | inactive: 0
48 | TSG101 (UniProt Q99816) | inactive: 0 | inactive: 0.032 | inactive: 0.074 | inactive: -0.015 | inactive: -0.016
49 | UBA52 (UniProt P62987) | inactive: 0.088 | inactive: -0.301 | inactive: -0.569 | inactive: 0.265 | inactive: 0.193
50 | TXNDC9 (UniProt O14530) | inactive: 0.02 | inactive: 0.004 | inactive: 0.003 | inactive: 0.015 | inactive: 0.015
51 | UBA6 | inactive: -0.018 | inactive: 0 | inactive: 0.06 | inactive: 0.001 | inactive: -0.002
52 | U2SURP (UniProt O15042) | inactive: 0.007 | inactive: -0.023 | inactive: 0.084 | inactive: 0.071 | inactive: 0.007
53 | UBE3A (UniProt Q05086) | inactive: -0.017 | inactive: 0.048 | inactive: 0.022 | inactive: -0.015 | inactive: -0.025
54 | TXNL1 (UniProt O43396) | inactive: 0.005 | inactive: 0.051 | inactive: 0.056 | inactive: -0.01 | inactive: 0.015
55 | TUBE1 (UniProt Q9UJT0) | inactive: -0.053 | inactive: 0.018 | inactive: 0.018 | inactive: -0.007 | inactive: -0.132
56 | TUBB1 (UniProt Q9H4B7) | inactive: -0.012 | inactive: 0.009 | inactive: -0.007 | inactive: -0.033 | inactive: -0.043

An excerpt from above with just log2 fold change [5] and log2 fold change [3]:
Row	Target	log2 fold change [5]	log2 fold change [3]
39	UBA5 (UniProt Q9GZZ9)	inactive: 0.003	inactive: 0.03
56	TUBB1 (UniProt Q9H4B7)	inactive: -0.043	inactive: -0.007
